Laboratory results: PubChem BioAssay AID1159578 (Peter MacCallum Cancer Centre, 2015)

Screen: 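siRNA pools altering how lymphatic endothelial cells close a scratch wound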 (primary screen)
Cells: human lymphatic endothelial cells
Knock-down reagent: siRNA pool against human genes, 40 nM
Timing: 48 h after transfection
Measured: 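High-content imaging of dye-stained cells in a scratch assay measures filled wound area and nuclei per well; duplicate means given as ratio to mock and robust z-score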
Scale: migration robust z-score: higher = faster migration into the scratch; migration relative to mock: higher = more scratch area covered than mock; nuclei per well: higher = more cells in the well
Active means: 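Pools averaging fewer than 3300 nuclei are never called; remaining pools count as changed when migration robust z lies outside -2 to 2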
Calls: active = migration changed; inactive = no migration change, or too few cells
In all, the deposit lists about 18,000 reagents; this is a part drawn at random. Over the whole deposit, about 1,030 (5.7%) got an active call. 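Inactive calls also include pools with fewer than 3300 nuclei, whose migration was not assessed.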 The raw values are shown without normalisation.

gene,migration robust z-score,migration class with cell-count check,migration relative to mock,"nuclei per well, duplicate mean",activity call
HDDC2 (HD domain containing 2),0.52,migration z between -2 and 2; enough cells,1.03,4685,inactive
RGS11 (regulator of G protein signaling 11),1.08,migration z between -2 and 2; enough cells,1.17,6244,inactive
ZNF2 (zinc finger protein 2),0.21,migration z between -2 and 2; enough cells,0.94,7026,inactive
PCOLCE2 (procollagen C-endopeptidase enhancer 2),-0.56,migration z between -2 and 2; enough cells,0.74,5300,inactive
KCNN1 (potassium calcium-activated channel subfamily N member 1),-0.55,migration z between -2 and 2; enough cells,0.7,5622,inactive
PCDHB2 (protocadherin beta 2),0.99,migration z between -2 and 2; enough cells,1.14,6041,inactive
CYP21A2 (cytochrome P450 family 21 subfamily A member 2),0.38,migration z between -2 and 2; enough cells,0.98,5767,inactive
DUOXA2 (dual oxidase maturation factor 2),-2.1,migration z below -2; enough cells,0.34,5986,active
PSD3 (pleckstrin and Sec7 domain containing 3),0.9,migration z between -2 and 2; enough cells,1.13,4602,inactive
GALR1 (galanin receptor 1),-1.01,migration z between -2 and 2; enough cells,0.61,5690,inactive
DPF2 (double PHD fingers 2),0.62,migration z between -2 and 2; enough cells,0.92,6640,inactive
PHAF1 (phagophore assembly factor 1),-0.25,migration z between -2 and 2; enough cells,0.82,5932,inactive
CD84 (CD84 molecule),-0.38,migration z between -2 and 2; enough cells,0.78,5680,inactive
MYLK3 (myosin light chain kinase 3),0.03,migration z between -2 and 2; enough cells,0.81,5708,inactive
ABCA6 (ATP binding cassette subfamily A member 6),0.83,migration z between -2 and 2; enough cells,0.96,5870,inactive
SPRYD3 (SPRY domain containing 3),-0.54,migration z between -2 and 2; enough cells,0.74,6402,inactive
OR2T12 (olfactory receptor family 2 subfamily T member 12),-1.35,migration z between -2 and 2; enough cells,0.53,5604,inactive

A portion of the results above:
gene,migration robust z-score,migration class with cell-count check,migration relative to mock,"nuclei per well, duplicate mean",activity call
MYLK3 (myosin light chain kinase 3),0.03,migration z between -2 and 2; enough cells,0.81,5708,inactive
ABCA6 (ATP binding cassette subfamily A member 6),0.83,migration z between -2 and 2; enough cells,0.96,5870,inactive
SPRYD3 (SPRY domain containing 3),-0.54,migration z between -2 and 2; enough cells,0.74,6402,inactive

The list goes on:
gene,migration robust z-score,migration class with cell-count check,migration relative to mock,"nuclei per well, duplicate mean",activity call
"JUND (JunD proto-oncogene, AP-1 transcription factor subunit)",0.65,migration z between -2 and 2; enough cells,0.93,6296,inactive
OGA (O-GlcNAcase),0.65,migration z between -2 and 2; enough cells,0.93,5130,inactive
CATSPER4 (cation channel sperm associated 4),0.54,migration z between -2 and 2; enough cells,0.91,4340,inactive
COMMD4 (COMM domain containing 4),0.5,migration z between -2 and 2; enough cells,1.01,7267,inactive
SESN1 (sestrin 1),0.4,migration z between -2 and 2; enough cells,0.99,6032,inactive
ELOA2 (elongin A2),-1.99,migration z between -2 and 2; enough cells,0.37,4368,inactive
NDUFB9 (NADH:ubiquinone oxidoreductase subunit B9),-0.16,migration z between -2 and 2; enough cells,0.77,5730,inactive
OR2T33 (olfactory receptor family 2 subfamily T member 33),-1.82,migration z between -2 and 2; enough cells,0.42,3912,inactive
TPD52L2 (TPD52 like 2),0.94,migration z between -2 and 2; enough cells,1.13,5796,inactive
"GIMAP7 (GTPase, IMAP family member 7)",-0.86,migration z between -2 and 2; enough cells,0.66,4531,inactive
SPCS2 (signal peptidase complex subunit 2),1.46,migration z between -2 and 2; enough cells,1.27,5955,inactive
ZNF208 (zinc finger protein 208),0.11,migration z between -2 and 2; enough cells,0.91,4950,inactive
"ENDOU (endonuclease, poly(U) specific)",0.94,migration z between -2 and 2; enough cells,0.98,5298,inactive
ARHGAP25 (Rho GTPase activating protein 25),1.54,migration z between -2 and 2; enough cells,1.28,6147,inactive
YIPF3 (Yip1 domain family member 3),-0.9,migration z between -2 and 2; enough cells,0.66,5155,inactive
VSX2 (visual system homeobox 2),-0.54,migration z between -2 and 2; enough cells,0.74,6712,inactive
SUFU (SUFU negative regulator of hedgehog signaling),1.33,migration z between -2 and 2; enough cells,1.06,5624,inactive
DEFB124 (defensin beta 124),-3.33,migration z below -2; enough cells,0.02,5482,active
"NAA80 (N-alpha-acetyltransferase 80, NatH catalytic subunit)",-0.31,migration z between -2 and 2; enough cells,0.8,6043,inactive
PRR4 (proline rich 4),-0.24,migration z between -2 and 2; enough cells,0.82,5127,inactive
SRP68 (signal recognition particle 68),1.13,migration z between -2 and 2; enough cells,1.17,5790,inactive
TUBB2A (tubulin beta 2A class IIa),-2.64,migration z below -2; enough cells,0.3,6326,active
